Reference: paper PMC10214663
No constants are given. Whether binding was seen depends on the method and setting. Some results given as binding are weak or reduced against the parent protein; the word gives no strength. Tags and fused reporters may be left off the sequences shown.

What was measured:
Assay in all cases: overlay or dot blot; galectin array: recombinant galectins (0,5 pmol) dot-blotted on PVDF, blocked with 3% BSA, incubated overnight with FGFs-Fc or Fc (0,9 pM); anti-Fc mAb-HRP and chemiluminescence; with FGF4-Fc also done in the presence of lactose (Fig. S1); both purified
galectin-1 (human) = galectin-1 (human) (UniProt P09382)
galectin-3 (human) = galectin-3 (human) (UniProt P17931)
galectin-7 (human) = galectin-7 (human) (UniProt P47929)

Measured: binding

B1: FGF10-Fc (Fc fusion, UniProt O15520 38-208)
chain: QALGQDMVSPEATNSSSSSFSSPSSAGRHVRSYNHLQGDVRWRKLFSFTKYFLKIEKNGKVSGTKKENCPYSILEITSVEIGVVAVKAINSNYYLAMNKKGKLYGSKEFNNDCKLKERIEENGYNTYASFNWQHNGRQMYVALNGKGAPRRGQKTRRKNTSAHFLPMVVHS
modifications: N-glycosylated (two putative N-glycosylation sites; shift on PNGase F treatment)
binds: all assays above
